Data as given in PubChem BioAssay AID686937 (Drosophila RNAi Screening Center, 2013).

Aim: 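Knock-downs that reduce output of a secreted reporter enzyme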 (primary screen)
Cells: Drosophila S2 cells expressing secreted horseradish peroxidase
Reagent: long dsRNA against Drosophila genes
Time to read-out: about 5.5 days (5 days dsRNA, then 12 h reporter induction)
Challenge: reporter expression induced after 5 days of dsRNA, read 12 h later; inducer not stated
Detection: 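After 5 days of dsRNA and 12 h of reporter induction, medium peroxidase read by chemiluminescence and scored as per-plate z-score; higher values mean more reporter released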
Reading the numbers: z-score: higher = more reporter secreted into medium
In all, the deposit lists about 23,000 reagents; this is an unselected part of those that have a named target and a result. 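Reduced-secretion tags in replicate 1 do not always agree with the z-scores; no criterion for assigning the tags was given.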 Reagents against one gene are numbered here. A plus sign joins genes that one reagent is predicted to hit. The record does not give: the amount of reagent.

The opening 6 entries as a preview:
no.	Gene	reagent no.	z-score, replicate 1	z-score, replicate 2	z-score, replicate 3	z-score, replicate 4	phenotype, replicate 1
1	Spag1	1	0.25	0.38			
2	CG9016	1	0.1	0.21			
3	Dso1	1	0.64	-1.12			
4	soti	1	0.46	0.39			
5	boi	1	0.18	0.34			
6	boi	2	0.24	0.09			

Results, from the first entry:
no.	Gene	reagent no.	z-score, replicate 1	z-score, replicate 2	z-score, replicate 3	z-score, replicate 4	phenotype, replicate 1
1	Spag1	1	0.25	0.38			
2	CG9016	1	0.1	0.21			
3	Dso1	1	0.64	-1.12			
4	soti	1	0.46	0.39			
5	boi	1	0.18	0.34			
6	boi	2	0.24	0.09			
7	CG33476	1	-0.64	-0.17			
8	Cyp4s3	1	0.43	0.5			
9	Cyp4s3	2	-0.3	-0.68			reduced secretion
10	CG4213	1	0.23	0.28			
11	Gr22e	1	-0.78	-0.36			
12	Task7	1	0.38	-0.11			
13	Nha2 + asRNA:CR43454	1	-0.17	-1.05			
14	CG7728	1	0.23	0.26			
15	pdm2	1	0.36	0			
16	pdm2	2	-0.36	-1.09			
17	pdm2	3	0	-0.19			
18	aralar1	1	0.35	0.44			
19	aralar1	2	0.12	0.25			
20	L (retired record)	1	-0.01	-0.31			
21	L (retired record)	2	-0.9	-1			
22	l(3)73Ah	1	0.19	-0.08			
23	CG1371	1	0.37	0.4			
24	Femcoat	1	0.3	0.01			
25	fliI	1	-0.7	0.35			
26	mam	1	-4.2	-3.79			reduced secretion
27	mam	2	-4.11	-3.12			reduced secretion
28	ChLD3	1	0.08	-0.4			
29	grau	1	0.43	0.33			
30	Vps60	1	0.22	0.05			
31	eIF2beta	1	-5.66	-3.6			reduced secretion
32	RagA-B	1	-0.2	-0.42			
33	cac	1	0.26	0.19			
34	cac	2	-0.01	0.23			
35	CG32264	1	-1.59	-0.96			reduced secretion
36	CG32264	2	0.4	0.32			
37	CG32264	3	0.34	0.29			
38	CG32264	4	-0.64	0.31	0.33	-0.18	
39	CG32264	5	-1.4	-1.46			
40	Srlp	1	-3.78	-3.67			reduced secretion
41	ara	1	-1.84	-1.47			reduced secretion
42	CG16789	1	0.34	0.6			
43	CG14153	1	0.33	0.54			
44	CG14153	2	-0.2	-0.24			
45	Sirt6	1	0.29	0.08			
46	Alg1	1	0.18	0			
47	Ir60d	1	0.27	0.08			
48	noc	1	0.32	0.2			
49	rut	1	-0.58	-2.68			
50	Calr	1	-1.39	-1.79			
51	Ak1	1	0.2	0.13			
52	eIF3g2	1	0.21	0.17			
53	Dhps	1	0.15	-0.13			
54	CG6052	1	0	0.01			
55	CG10936	1	0.58	0.23			
56	CG10936	2	-0.14	-0.38			
57	CG10936	3	-0.02	0.23			
58	CG31538	1	0.31	0.31			
59	pasi2	1	0.45	0.54			
60	CG30457	1	0.24	0.26	1.16	1.55	
61	lilli	1	-4.15	0.46	0.25	-3.99	reduced secretion
62	CG16727	1	0.32	0.46			
63	CG32219	1	0.83	0.39			
64	Zip89B	1	0.41	0.48			
65	ear	1	-0.85	-0.68			
66	Dtg	1	0.23	0.24			
67	CG17230	1	0.45	0.59			
68	Zasp66	1	0.15	0.23			
69	Zasp66	2	0.43	0.43			
70	Zasp66	3	0.42	0.29			
71	CG43774 + CG43773	1	0.29	0.2			
72	CG43774 + CG43773	2	0.19	0.28			
73	ppk24	1	-0.13	0.14			
74	Enoph	1	0.49	0.56			
75	AnxB11	1	0.51	0.4			
76	CG9175	1	-2.09	-3.54			reduced secretion
77	Hph	1	0.14	0.4			
78	Hph	2	0.58	0.4			
79	Hph	3	-0.21	0.12			
80	CG12375	1	0.34	0.35			
81	Vm26Ac	1	0.21	0.15			
82	PolG1	1	0.63	0.25			
